Results from the supplement of paper PMC12067093, “Discovery and optimisation of a covalent ligand for TRIM25 and its application to targeted protein ubiquitination” (Chemical Science, 2025).
Some of the results follow.

Amino acid sequences for entries named in this document (tags omitted). A change or cut given only in a name is not applied to a line headed by its entry.
UniProt Q9H3S1: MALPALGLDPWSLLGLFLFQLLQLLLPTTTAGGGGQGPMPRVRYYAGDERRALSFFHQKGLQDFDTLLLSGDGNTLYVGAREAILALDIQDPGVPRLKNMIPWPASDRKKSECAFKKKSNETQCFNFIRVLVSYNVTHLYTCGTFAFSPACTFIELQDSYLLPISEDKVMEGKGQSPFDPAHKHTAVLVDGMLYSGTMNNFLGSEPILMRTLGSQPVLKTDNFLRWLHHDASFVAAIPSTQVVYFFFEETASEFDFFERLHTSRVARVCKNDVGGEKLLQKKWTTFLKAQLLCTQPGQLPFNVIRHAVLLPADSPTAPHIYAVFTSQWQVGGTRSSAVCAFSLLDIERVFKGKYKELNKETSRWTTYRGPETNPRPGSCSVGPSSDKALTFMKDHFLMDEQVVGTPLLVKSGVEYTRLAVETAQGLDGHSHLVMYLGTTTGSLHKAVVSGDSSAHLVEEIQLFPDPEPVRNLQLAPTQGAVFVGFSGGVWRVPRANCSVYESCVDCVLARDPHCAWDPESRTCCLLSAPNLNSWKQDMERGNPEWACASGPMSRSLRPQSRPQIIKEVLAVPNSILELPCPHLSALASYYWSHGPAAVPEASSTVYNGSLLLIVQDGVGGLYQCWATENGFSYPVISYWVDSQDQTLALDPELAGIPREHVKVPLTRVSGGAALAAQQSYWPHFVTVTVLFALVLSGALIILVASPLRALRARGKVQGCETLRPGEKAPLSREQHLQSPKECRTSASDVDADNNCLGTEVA
UniProt P53992: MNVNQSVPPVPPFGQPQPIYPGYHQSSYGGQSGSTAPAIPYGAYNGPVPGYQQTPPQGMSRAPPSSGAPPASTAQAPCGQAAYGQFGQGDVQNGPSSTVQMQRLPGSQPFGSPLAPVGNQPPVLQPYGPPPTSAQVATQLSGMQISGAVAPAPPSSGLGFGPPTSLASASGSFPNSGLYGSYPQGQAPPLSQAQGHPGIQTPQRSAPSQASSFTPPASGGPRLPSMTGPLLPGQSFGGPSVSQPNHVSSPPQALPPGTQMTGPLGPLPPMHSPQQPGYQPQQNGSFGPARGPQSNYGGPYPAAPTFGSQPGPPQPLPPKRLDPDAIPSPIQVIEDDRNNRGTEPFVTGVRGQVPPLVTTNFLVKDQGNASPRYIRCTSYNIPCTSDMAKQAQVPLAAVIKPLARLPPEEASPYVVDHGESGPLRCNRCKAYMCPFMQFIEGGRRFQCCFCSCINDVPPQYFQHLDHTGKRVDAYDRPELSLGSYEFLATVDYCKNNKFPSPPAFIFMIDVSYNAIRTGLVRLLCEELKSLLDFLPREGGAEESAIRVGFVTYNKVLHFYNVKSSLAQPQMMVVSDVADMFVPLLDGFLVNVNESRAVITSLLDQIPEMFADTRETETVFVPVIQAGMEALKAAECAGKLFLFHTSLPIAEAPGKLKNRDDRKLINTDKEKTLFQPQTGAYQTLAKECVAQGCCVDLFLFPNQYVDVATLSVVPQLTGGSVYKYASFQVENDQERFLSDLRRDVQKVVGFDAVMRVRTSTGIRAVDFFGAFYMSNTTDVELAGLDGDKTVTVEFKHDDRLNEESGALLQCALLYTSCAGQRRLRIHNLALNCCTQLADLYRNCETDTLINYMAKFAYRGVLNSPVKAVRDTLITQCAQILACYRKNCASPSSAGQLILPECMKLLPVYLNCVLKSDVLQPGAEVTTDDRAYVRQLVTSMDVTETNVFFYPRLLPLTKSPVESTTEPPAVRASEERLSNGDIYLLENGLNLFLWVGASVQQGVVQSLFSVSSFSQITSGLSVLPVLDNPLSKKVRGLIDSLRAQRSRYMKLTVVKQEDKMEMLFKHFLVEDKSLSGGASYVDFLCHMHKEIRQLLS
UniProt Q15437: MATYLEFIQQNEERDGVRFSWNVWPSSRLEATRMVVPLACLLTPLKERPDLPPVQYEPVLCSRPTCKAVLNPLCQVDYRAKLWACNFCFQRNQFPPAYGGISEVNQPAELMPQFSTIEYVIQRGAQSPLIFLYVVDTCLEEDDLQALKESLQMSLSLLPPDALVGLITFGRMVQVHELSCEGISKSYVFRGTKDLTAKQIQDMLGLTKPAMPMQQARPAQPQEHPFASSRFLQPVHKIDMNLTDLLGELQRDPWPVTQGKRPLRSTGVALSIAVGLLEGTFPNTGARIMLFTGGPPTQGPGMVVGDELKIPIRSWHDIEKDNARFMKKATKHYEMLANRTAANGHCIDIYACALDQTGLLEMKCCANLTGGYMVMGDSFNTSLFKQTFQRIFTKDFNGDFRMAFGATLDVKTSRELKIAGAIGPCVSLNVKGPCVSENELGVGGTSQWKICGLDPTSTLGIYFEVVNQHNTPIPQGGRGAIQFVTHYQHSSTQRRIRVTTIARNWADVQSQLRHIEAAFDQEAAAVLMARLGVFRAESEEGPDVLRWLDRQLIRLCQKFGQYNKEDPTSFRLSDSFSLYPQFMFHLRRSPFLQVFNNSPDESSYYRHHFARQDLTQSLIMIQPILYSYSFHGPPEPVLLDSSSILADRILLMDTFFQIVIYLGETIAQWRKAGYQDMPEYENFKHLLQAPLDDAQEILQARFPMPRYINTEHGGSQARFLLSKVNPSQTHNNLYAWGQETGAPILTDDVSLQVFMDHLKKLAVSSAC
UniProt Q14160: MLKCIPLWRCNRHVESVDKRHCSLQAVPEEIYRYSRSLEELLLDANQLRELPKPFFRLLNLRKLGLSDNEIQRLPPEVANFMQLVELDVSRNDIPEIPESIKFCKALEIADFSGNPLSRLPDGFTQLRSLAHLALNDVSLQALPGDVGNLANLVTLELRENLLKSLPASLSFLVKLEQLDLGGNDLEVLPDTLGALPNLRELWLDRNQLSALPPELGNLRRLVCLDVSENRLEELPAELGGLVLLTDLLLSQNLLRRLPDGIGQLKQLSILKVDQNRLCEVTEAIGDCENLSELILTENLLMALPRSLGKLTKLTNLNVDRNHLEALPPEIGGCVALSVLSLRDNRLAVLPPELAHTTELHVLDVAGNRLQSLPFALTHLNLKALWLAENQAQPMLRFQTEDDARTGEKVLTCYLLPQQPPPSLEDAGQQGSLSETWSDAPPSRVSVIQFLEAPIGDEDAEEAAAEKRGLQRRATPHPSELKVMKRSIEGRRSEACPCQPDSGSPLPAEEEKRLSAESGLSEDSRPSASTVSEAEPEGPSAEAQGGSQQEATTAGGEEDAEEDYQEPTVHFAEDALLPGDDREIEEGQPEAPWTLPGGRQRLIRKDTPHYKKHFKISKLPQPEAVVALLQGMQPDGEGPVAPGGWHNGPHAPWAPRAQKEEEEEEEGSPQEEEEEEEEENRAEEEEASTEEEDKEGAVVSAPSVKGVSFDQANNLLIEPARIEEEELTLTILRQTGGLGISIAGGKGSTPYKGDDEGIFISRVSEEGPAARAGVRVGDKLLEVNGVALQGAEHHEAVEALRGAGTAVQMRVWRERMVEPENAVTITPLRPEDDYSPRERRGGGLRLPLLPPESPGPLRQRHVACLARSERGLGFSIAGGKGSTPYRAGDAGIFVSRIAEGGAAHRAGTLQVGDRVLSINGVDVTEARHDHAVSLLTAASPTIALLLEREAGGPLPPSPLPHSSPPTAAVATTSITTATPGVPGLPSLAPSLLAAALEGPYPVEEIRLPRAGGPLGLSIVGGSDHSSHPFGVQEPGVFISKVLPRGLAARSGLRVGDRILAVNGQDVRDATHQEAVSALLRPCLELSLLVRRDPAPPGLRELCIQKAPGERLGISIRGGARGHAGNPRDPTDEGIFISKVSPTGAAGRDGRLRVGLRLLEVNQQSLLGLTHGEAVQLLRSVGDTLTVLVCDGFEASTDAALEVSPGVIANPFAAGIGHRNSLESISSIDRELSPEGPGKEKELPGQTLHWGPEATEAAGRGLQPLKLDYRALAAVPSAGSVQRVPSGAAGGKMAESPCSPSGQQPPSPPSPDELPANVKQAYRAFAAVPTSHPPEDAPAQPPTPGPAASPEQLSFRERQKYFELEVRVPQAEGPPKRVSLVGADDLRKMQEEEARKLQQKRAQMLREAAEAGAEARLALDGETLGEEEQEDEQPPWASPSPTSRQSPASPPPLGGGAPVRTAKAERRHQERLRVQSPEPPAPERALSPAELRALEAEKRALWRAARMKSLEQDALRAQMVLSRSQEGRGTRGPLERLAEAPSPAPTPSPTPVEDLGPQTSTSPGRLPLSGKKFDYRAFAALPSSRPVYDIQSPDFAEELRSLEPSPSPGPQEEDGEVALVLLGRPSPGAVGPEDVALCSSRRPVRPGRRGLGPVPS
UniProt Q99590: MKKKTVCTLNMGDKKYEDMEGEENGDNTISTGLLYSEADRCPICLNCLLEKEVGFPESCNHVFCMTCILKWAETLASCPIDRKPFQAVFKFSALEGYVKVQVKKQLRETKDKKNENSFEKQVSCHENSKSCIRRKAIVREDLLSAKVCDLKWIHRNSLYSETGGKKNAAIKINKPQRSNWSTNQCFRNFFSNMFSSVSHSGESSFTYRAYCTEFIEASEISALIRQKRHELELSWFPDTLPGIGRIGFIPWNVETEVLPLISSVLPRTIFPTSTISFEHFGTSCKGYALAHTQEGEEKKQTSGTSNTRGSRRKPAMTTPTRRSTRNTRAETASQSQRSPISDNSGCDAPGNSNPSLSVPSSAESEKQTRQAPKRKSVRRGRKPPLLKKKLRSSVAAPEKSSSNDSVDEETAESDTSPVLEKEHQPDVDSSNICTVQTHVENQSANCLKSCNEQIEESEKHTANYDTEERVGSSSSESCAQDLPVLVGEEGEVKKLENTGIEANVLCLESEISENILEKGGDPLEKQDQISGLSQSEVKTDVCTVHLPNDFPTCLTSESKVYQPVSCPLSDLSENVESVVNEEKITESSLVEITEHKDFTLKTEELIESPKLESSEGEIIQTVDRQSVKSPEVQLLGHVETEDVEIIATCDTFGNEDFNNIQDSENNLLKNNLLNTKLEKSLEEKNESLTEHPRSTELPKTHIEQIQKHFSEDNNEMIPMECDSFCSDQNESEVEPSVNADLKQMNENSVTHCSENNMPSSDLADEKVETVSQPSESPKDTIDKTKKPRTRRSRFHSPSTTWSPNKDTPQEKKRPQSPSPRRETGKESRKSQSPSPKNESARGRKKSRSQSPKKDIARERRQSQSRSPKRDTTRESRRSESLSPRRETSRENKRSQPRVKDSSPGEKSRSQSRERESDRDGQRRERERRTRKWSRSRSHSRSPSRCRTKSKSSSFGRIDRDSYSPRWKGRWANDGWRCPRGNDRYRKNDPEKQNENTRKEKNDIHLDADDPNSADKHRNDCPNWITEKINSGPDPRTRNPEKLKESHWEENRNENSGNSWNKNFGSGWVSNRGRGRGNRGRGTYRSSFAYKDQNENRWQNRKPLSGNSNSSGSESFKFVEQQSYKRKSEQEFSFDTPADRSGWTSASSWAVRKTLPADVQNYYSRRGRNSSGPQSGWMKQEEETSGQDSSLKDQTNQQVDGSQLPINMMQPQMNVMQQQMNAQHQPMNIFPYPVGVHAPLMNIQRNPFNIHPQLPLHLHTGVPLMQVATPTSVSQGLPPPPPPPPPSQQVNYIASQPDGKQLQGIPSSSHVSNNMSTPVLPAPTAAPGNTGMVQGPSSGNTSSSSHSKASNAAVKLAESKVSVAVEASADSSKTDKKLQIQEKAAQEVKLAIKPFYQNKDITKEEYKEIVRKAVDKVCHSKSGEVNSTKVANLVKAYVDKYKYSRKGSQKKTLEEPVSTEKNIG
UniProt Q9HAJ7: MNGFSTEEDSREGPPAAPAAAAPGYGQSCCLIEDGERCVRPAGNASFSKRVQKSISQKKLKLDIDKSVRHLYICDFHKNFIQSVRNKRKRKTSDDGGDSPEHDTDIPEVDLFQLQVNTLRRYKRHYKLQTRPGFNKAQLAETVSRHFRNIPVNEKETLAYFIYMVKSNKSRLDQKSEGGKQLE
UniProt Q96GD3: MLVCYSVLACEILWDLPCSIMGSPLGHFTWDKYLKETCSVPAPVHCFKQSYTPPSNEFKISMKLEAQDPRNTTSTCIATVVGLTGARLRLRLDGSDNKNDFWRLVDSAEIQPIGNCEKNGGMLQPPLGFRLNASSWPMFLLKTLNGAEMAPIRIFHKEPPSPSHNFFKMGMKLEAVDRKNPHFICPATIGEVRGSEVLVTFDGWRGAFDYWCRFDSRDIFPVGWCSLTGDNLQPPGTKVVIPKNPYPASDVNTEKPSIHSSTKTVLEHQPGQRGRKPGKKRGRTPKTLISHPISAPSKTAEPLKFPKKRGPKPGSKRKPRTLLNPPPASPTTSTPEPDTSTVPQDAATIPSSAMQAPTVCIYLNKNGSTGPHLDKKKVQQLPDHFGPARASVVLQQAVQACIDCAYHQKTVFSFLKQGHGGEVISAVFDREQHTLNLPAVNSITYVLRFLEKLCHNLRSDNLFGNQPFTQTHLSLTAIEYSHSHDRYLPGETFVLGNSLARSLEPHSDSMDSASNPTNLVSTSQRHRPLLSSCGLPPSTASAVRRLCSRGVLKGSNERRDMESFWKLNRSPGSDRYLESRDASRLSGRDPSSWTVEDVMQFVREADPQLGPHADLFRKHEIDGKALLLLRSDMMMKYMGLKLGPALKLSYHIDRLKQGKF

Compound: Cc1cc(ccc1-c1ccccc1)C(=O)N1CCCN(CC1)C(=O)CCl [compound 10]
Assay: probe-labelled cysteine peptide fold change vs DMSO (competition) (log2 fold change); higher = less target engagement (more negative = stronger competition)
Settings: 10 µM; THP-1; incubation time: 4 h
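Further: competitive profiling in live THP-1 cells: cysteine peptides tagged with an iodoacetamide desthiobiotin (IA-DTB) probe, intensity after compound treatment relative to DMSO-treated cells.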

**Q.** How did the “probe-labelled cysteine peptide fold change” value turn out when “SART3_Q15020_182_DYICPNIWLEYGQYSVGGIGQK (UniProt Q15020)” was run?
**A.** Its value is 0.208.

**Q.** Which “probe-labelled cysteine peptide fold change” value does the source give for “SEMA4A_Q9H3S1_547_GNPEWACASGPMSR (UniProt Q9H3S1)” here?
**A.** The value was -0.0882.

**Q.** How did the “probe-labelled cysteine peptide fold change” value turn out when “SDR39U1_Q9NRG7_78_ITWDELAASGLPSCDAAVNLAGENILNPLRR (UniProt Q9NRG7)” was run?
**A.** Its value is -0.0189.

**Q.** Which “probe-labelled cysteine peptide fold change” value does the source give for “SCRN1_Q12765_54_VECTYISIDQVPR (UniProt Q12765)” here?
**A.** The value was 0.0546.

**Q.** Which “probe-labelled cysteine peptide fold change” value does the source give for “SEC24C_P53992_816_LNEESGALLQCALLYTSCAGQR (UniProt P53992)” here?
**A.** The value was -0.0652.

**Q.** For “SCFD2_Q8WU76_79_AVFVLSCLLK (UniProt Q8WU76)”, which “probe-labelled cysteine peptide fold change” value is on record?
**A.** Its value is 0.142.

**Q.** How did the “probe-labelled cysteine peptide fold change” value turn out when “SEC23B_Q15437_61_ERPDLPPVQYEPVLCSR (UniProt Q15437)” was run?
**A.** The value was 0.0959.

**Q.** Which “probe-labelled cysteine peptide fold change” value does the source give for “SCRIB_Q14160_1082_DATHQEAVSALLRPCLELSLLVR (UniProt Q14160)” here?
**A.** The value was 0.188.

**Q.** Which “probe-labelled cysteine peptide fold change” value does the source give for “SDSL_Q96GA7_38_CENVQPSGSFK (UniProt Q96GA7)” here?
**A.** Its value is 0.0156.

**Q.** How did the “probe-labelled cysteine peptide fold change” value turn out when “SCAF11_Q99590_752_QMNENSVTHCSENNMPSSDLADEK (UniProt Q99590)” was run?
**A.** The value was 0.0241.

**Q.** For “SCRIB_Q14160_864_HVACLAR (UniProt Q14160)”, which “probe-labelled cysteine peptide fold change” value is on record?
**A.** Its value is -0.128.

**Q.** “SCYL1_Q96KG9_88_CLHVVTEAVTPLGIYLK (UniProt Q96KG9)” was tested. Which “probe-labelled cysteine peptide fold change” value did it give?
**A.** The value was 0.0987.

**Q.** For “SCRIB_Q14160_1612_PSPGAVGPEDVALCSSR (UniProt Q14160)”, which “probe-labelled cysteine peptide fold change” value is on record?
**A.** The value was -0.419.

**Q.** How did the “probe-labelled cysteine peptide fold change” value turn out when “SENP6_Q9GZR1_127_KLSENTQNTSLCSGTVVHGR (UniProt Q9GZR1)” was run?
**A.** The value was -0.0334.

**Q.** For “SEC31A_O94979_216_MHCSGLAWHPDVATQMVLASEDDRLPVIQMWDLR (UniProt O94979)”, which “probe-labelled cysteine peptide fold change” value is on record?
**A.** The value was 0.137.

**Q.** How did the “probe-labelled cysteine peptide fold change” value turn out when “SEC24C_P53992_448_FQCCFCSCINDVPPQYFQHLDHTGKR (UniProt P53992)” was run?
**A.** Its value is 0.109.

**Q.** For “SATB1_Q01826_78_GTMLPVFCVVEHYENAIEYDCKEEHAEFVLVR (UniProt Q01826)”, which “probe-labelled cysteine peptide fold change” value is on record?
**A.** The value was 0.00518.

**Q.** For “SEC23B_Q15437_434_GPCVSENELGVGGTSQWK (UniProt Q15437)”, which “probe-labelled cysteine peptide fold change” value is on record?
**A.** The value was 0.152.

**Q.** “SEC13_P55735_77_GHEGPVWQVAWAHPMYGNILASCSYDRK (UniProt P55735)” was tested. Which “probe-labelled cysteine peptide fold change” value did it give?
**A.** The value was 0.0085.

**Q.** With “SEC24C_P53992_881_DTLITQCAQILACYR (UniProt P53992)” as the target, how does the “probe-labelled cysteine peptide fold change” value read?
**A.** The value was 0.0249.

**Q.** For “SAP30L_Q9HAJ7_74_HLYICDFHK (UniProt Q9HAJ7)”, which “probe-labelled cysteine peptide fold change” value is on record?
**A.** The value was 0.0243.

**Q.** For “SCMH1_Q96GD3_76_NTTSTCIATVVGLTGAR (UniProt Q96GD3)”, which “probe-labelled cysteine peptide fold change” value is on record?
**A.** Its value is 0.162.

**Q.** Which “probe-labelled cysteine peptide fold change” value does the source give for “SCMH1_Q96GD3_116_LVDSAEIQPIGNCEK (UniProt Q96GD3)” here?
**A.** The value was -0.154.

**Q.** “SDF2L1_Q9HCN8_92_GGSEGGCPR (UniProt Q9HCN8)” was tested. Which “probe-labelled cysteine peptide fold change” value did it give?
**A.** The value was -0.15.

**Q.** With “SEPSECS_Q9HD40_431_GFMSHTNNYPCAYLNAASAIGMK (UniProt Q9HD40)” as the target, how does the “probe-labelled cysteine peptide fold change” value read?
**A.** Its value is 0.0208.
